The text below walks through data of PubChem BioAssay AID2685 (National Center for Advancing Translational Sciences (NCATS), 2010).

The nature of this experiment: qHTS Assay for Lipid Storage Modulators in Drosophila S3 Cells.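 As to cell number change: cells counted by Cell Tracker Red CMTPX staining in the red channel.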 The following applies: BODIPY lipid droplet fluorescence, 18-24 h; for cell number change: measured here: cell count max response, cells fed with added oleic acid. Summed up:
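Laser-scanning cytometry quantifies lipid droplet accumulation (500–530 nm total intensity; droplet/cell object ratio) in oleic acid-fed (400 uM added) Drosophila S3 cells treated with a concentration series. 20 uM Triacsin C defined 100% inhibition.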
On the technique in general: qHTS replaces the single test concentration by a dilution series.

The mark [1] stands for this setting: measured here: cell number channel AC50, cells fed with added oleic acid.
The mark [2] stands for this setting: measured here: lipid fluorescence (Fed channel) AC50, cells fed with added oleic acid.

As usually defined, the AC50 is the concentration at which the activity in the assay is half-maximal. Low values mean activity at low concentration, high ones activity only at high concentration.

Structures are written as SMILES. The list shows a part of the results. Further columns of the screen follow, without active or inactive calls. Compounds called inactive in the main read-out are mostly missing here. The note in brackets gives the kind of curve behind each potency; many fits are weak.

For the molecule `Fc1ccccc1Cn1cc(C(=S)N2CCOCC2)c2ccccc21`, the cell number change was -6.05%.
For the molecule `CCC(C)NC(=O)C1CCCCN1S(=O)(=O)c1ccc(F)cc1` (configuration not stated), the cell number change was 7.37%. In addition, the AC50 under setting [1] was 0.651 µM [falling, single point].
As for `CS(=O)(=O)C1=NSC2=NC(=O)/C(=C\c3ccc(OS(=O)(=O)c4ccccc4)cc3)C(=N)N21`, the cell number change was 14.5%. Besides, the AC50 under setting [2] was 23.1 µM [rising, single point].
As to `CCOC(=O)c1cnc2c(C(=O)OC)cccc2c1NCc1ccco1`, under setting [2], the AC50 is 1.84 µM [rising, partial curve].
With `Cc1cccc(OCc2nc(C#N)c(NCc3ccc4c(c3)OCO4)o2)c1`, the cell number change came out at 96.9%. In addition, the concentration at half-maximal activity (AC50) under setting [1] is 0.58 µM [rising, full curve]. Also, under setting [2], the AC50 is 6.51 µM [rising, partial curve].
With `CCN(C(=O)COC(=O)c1nc2nc(C)cc(C)n2n1)C1CCS(=O)(=O)C1` (configuration not stated), the cell number change was 24.5%. The AC50 under setting [2] is 18.4 µM [rising, single point].
`CC1CCCCC1NS(=O)(=O)c1ccc2c(c1)CCC(=O)N2` (configuration not stated): the cell number change was found to be 17.5%. Further, the AC50 under setting [2] was 6.51 µM [rising, single point].
As to `Cc1nc(NS(=O)(=O)c2ccccc2C)c2c3c(sc2n1)CCC3`, the cell number change was -5.86%.
Take `Cc1oc2ccc(OC(=O)COc3c(F)c(F)c(F)c(F)c3F)cc2c1C(=O)OC(C)C`: the cell number change was -16.3%. Under setting [2], the AC50 is 29.1 µM [rising, single point].
Take `CC(NC(=O)c1ccco1)C(=O)N1CCN(c2ccccc2)CC1` (configuration not stated): the cell number change amounted to 10.3%.
As to `CCn1cc(CCCC(=O)NCc2cccc(OC)c2)c2ccccc21`, the cell number change is -24.8%. Under setting [2], the concentration at half-maximal activity (AC50) is 29.1 µM [falling, single point].
For the molecule `COc1ccc(C(=O)NCc2nnc(SCC(=O)Nc3nc4ccccc4s3)o2)cc1OC`, the cell number change amounted to 14.5%. The concentration at half-maximal activity (AC50) under setting [2] is 6.51 µM [falling, partial curve].
With `O=C(c1ccc(S(=O)(=O)Nc2ccccc2)cc1)N1CCCC1`, the cell number change was -8.84%.
Turning to `O=C(COC(=O)CN1C(=O)C2CCCCC2C1=O)Nc1ccc(S(=O)(=O)N2CCOCC2)cc1` (configuration not stated), the cell number change was found to be 8.46%. Moreover, the AC50 under setting [2] was 29.1 µM [falling, single point].
Take `NC(=O)C1(N2CCCCC2)CCN(S(=O)(=O)c2cc(Cl)ccc2Cl)CC1`: the cell number change came out at 11%. Further, the AC50 under setting [1] was 0.164 µM [falling, full curve]. In addition, under setting [2], the AC50 is 0.651 µM [falling, full curve].
Regarding `COc1cc(N2CCCC2)ccc1C=O`, the cell number change is 41.5%. Besides, the AC50 under setting [1] is 13 µM [rising, partial curve, poor fit]. Besides, the AC50 under setting [2] was 0.00461 µM [rising, full curve, poor fit].
As to `FC(F)Sc1ccc(N=C2NN=C(c3ccc4c(c3)OCCO4)CS2)cc1`, the cell number change was 6.67%.
As for `CCOc1ccc(OCC)c(NC(=O)CC2Oc3ccccc3NC2=O)c1` (configuration not stated), the cell number change was determined as 13.5%. For the same molecule, the AC50 under setting [2] is 18.4 µM [rising, single point].
As for `CC[n+]1c(/C=C/C=C/N(C(C)=O)c2ccccc2)sc2cc(OC)ccc21`, the cell number change was -75.6%. In addition, the AC50 under setting [1] is 6.51 µM [rising, single point]. The AC50 under setting [2] is 14.6 µM [falling, partial curve].
With `CCC(C)Sc1ccc([C@H]2N[C@@](C)(C(=O)OC)[C@H]3C(=O)N(CC)C(=O)[C@@H]23)cc1` (some centres not stated), the cell number change came out at 12%. Moreover, the AC50 under setting [2] was 7.31 µM [rising, partial curve, poor fit].
With `CCOc1ccc(C(=O)NC(=S)Nc2ccc(N3CCOCC3)c(Cl)c2)cc1[N+](=O)[O-]`, the cell number change is 11.2%. Further, the AC50 under setting [2] is 7.31 µM [rising, single point].
Regarding `COc1cccc(CNC(=O)CCNS(=O)(=O)c2ccc(C)cc2)c1`, the half-maximal activity concentration (AC50) under setting [1] was 2.91 µM [falling, single point].
Regarding `Cc1cc(C(=O)N(NC(=O)C(C)C)c2ccccc2)cs1`, the cell number change is -29.4%. Moreover, under setting [2], the AC50 is 10.3 µM [falling, partial curve].
`COc1ccc(CNC(=O)CN(Cc2ccc(F)cc2)C(=O)CCC(=O)Nc2nccs2)cc1`: the cell number change was 20.3%. For the same molecule, the half-maximal activity concentration (AC50) under setting [2] is 0.58 µM [falling, single point].
For the molecule `CCC(=O)N1CCC(NC(=O)Nc2ccc(OC(F)(F)F)cc2)CC1`, the cell number change was -16.1%. For the same molecule, under setting [2], the concentration at half-maximal activity (AC50) was 0.13 µM [falling, full curve, poor fit].
Turning to `Cc1ccccc1C(=O)NNC(=O)Cc1cccc2ccccc12`, the cell number change came to 56.7%. The AC50 under setting [1] is 29.1 µM [rising, partial curve].
Regarding `Cc1ccc(OCC(=O)Nc2ccccc2F)cc1C`, the cell number change turned out to be 6.68%. Further, the AC50 under setting [2] was 0.00411 µM [rising, full curve, poor fit].
For `O=C(NCCCN1CCOCC1)c1ccc2c(c1)N(Cc1c(F)cccc1Cl)C(=O)CS2`, the cell number change is -28.6%. Besides, the AC50 under setting [1] is 1.3 µM [falling, full curve, poor fit].
As for `CCOc1ccc(/C=N/Nc2ccccc2)cc1`, the cell number change was -19.6%. Under setting [2], the AC50 was 0.82 µM [falling, partial curve].
With `O=C(NCCCn1ccnc1)/C(=C/c1ccco1)NC(=O)c1ccco1`, the cell number change was -20.5%. Also, the AC50 under setting [2] is 2.06 µM [falling, full curve].
With `O=C(Nc1ccccn1)c1cc(-c2cccnc2)nc2ccc(Br)cc12`, the cell number change was -36.4%. Besides, under setting [1], the AC50 was 4.11 µM [falling, full curve, poor fit]. The AC50 under setting [2] is 4.61 µM [falling, partial curve].
On to `O=[N+]([O-])c1cnc2ccccn12`, for which the cell number change was found to be 49.3%. The AC50 under setting [1] is 20.6 µM [rising, single point]. Further, under setting [2], the AC50 is 29.1 µM [rising, single point].
`CCN(CC(=O)Nc1ccc(C(=O)OC)cc1)Cc1ccccc1`: the cell number change was 12.1%. Also, the AC50 under setting [2] was 6.51 µM [rising, single point].
`CCOc1ccc(C(=O)N2CCc3cc(OC)c(OC)cc3C2)cc1OCC`: the cell number change was -9.29%. Also, under setting [1], the AC50 is 0.291 µM [falling, full curve, poor fit]. The AC50 under setting [2] is 0.411 µM [falling, full curve, poor fit].
As to `CCOc1cc(/C=N/Nc2nnc(C)n2N)ccc1O`, the cell number change is -61%. For the same molecule, the concentration at half-maximal activity (AC50) under setting [1] was 25.9 µM [falling, single point].
As to `COc1cccc(C(=O)Nc2nnc(CCS(=O)(=O)c3ccc(C)cc3)s2)c1`, the cell number change was 1.47%.
Same read-out and setting: then `Cc1nc(Nc2nc3ccccc3o2)nc2c1CCC2`, with -14.3%; and `C/C(CC(=O)NC12CC3CC(CC(C3)C1)C2)=N\NC(=O)c1ccc(F)cc1`, with -13.3%; and `COc1ccc(CCNC(=O)c2ccc(Cl)c(S(=O)(=O)N3CCCC3)c2)cc1`, with 5.26%.
For the molecule `O=C1Cc2ccccc2C(=O)N1OCc1ccc(Cl)cc1`, under setting [1], the AC50 is 0.82 µM [rising, single point].
In the case of `Cn1c(SCC(=O)Nc2nccs2)nnc1C12CC3CC(CC(C3)C1)C2`, under setting [2], the AC50 was 6.51 µM [falling, single point].
For `CN1CCN(c2oc(COc3ccc(-c4ccccc4)cc3)nc2C#N)CC1`, the cell number change was -13.9%. Besides, under setting [2], the AC50 was 2.06 µM [rising, partial curve, poor fit].
With `CCC(C)Nc1nc(-c2cccc(OC)c2O)nc2ccccc12` (configuration not stated), the cell number change was -18.4%. Moreover, the AC50 under setting [2] is 29.1 µM [falling, single point].
For the molecule `O=C(NCCCN1CCOCC1)c1ccc(Br)cc1`, the cell number change was 14.8%. The AC50 under setting [1] was 0.00461 µM [rising, full curve, poor fit]. Further, under setting [2], the AC50 was 0.146 µM [rising, full curve, poor fit].
As for `CCOc1ccc(CCNC(=O)CN2C(=O)NC3(CCCc4ccccc43)C2=O)cc1OCC` (configuration not stated), the cell number change was -29.4%. For the same molecule, the half-maximal activity concentration (AC50) under setting [2] was 8.2 µM [falling, partial curve].
Turning to `Cc1ccc(S(=O)(=O)NC(=NC2CCCCC2)c2ccc(Cl)cc2)cc1`, the cell number change was determined as 5.04%.
As to `CCOc1ccc(N2C(=O)CC(Sc3nc(C)cc(C)c3C#N)C2=O)cc1` (configuration not stated), the cell number change is -3.12%. For the same molecule, under setting [2], the AC50 was 1.84 µM [rising, partial curve].
Turning to `C/C(=N\NC(=O)c1ccc(CSc2nc(C)cc(C)n2)cc1)c1ccco1`, the cell number change is 12.7%.
Still for that read-out and setting: then `Cc1sc2nc(N)sc2c1C`, with -0.281%.
In the case of `O=C1CC(N2CCN(c3ccccn3)CC2)C(=O)N1CC(c1ccccc1)c1ccccc1` (configuration not stated), the cell number change was -36.8%. Besides, the AC50 under setting [1] is 29.1 µM [falling, single point].
As to `COc1cccc(S(=O)(=O)N2CCOCC2)c1`, the AC50 under setting [1] is 0.517 µM [rising, full curve, poor fit].
`Cc1nnc(SCC(=O)Nc2ncc3c(n2)CC(c2ccccc2)CC3=O)s1` (configuration not stated): under setting [2], the AC50 is 6.51 µM [falling, partial curve, poor fit].
As for `COc1ccc(CCNC(=O)c2c(Cl)ccc(Cl)c2OC)cc1OC`, the cell number change was determined as 8.77%. For the same molecule, under setting [2], the AC50 is 29.1 µM [rising, partial curve, poor fit].
On to `CCC(C)[C@H](NC(=O)C1CC(=O)N(c2ccc3c(c2)OCCO3)C1)C(=O)NC1CCCC1` (some centres not stated), for which the cell number change was 16.5%.
For the molecule `COc1cc(OC)cc(-c2nc(=S)n3ccsc3n2)c1`, the cell number change was determined as 60.2%. Moreover, the AC50 under setting [2] was 29.1 µM [rising, single point].
Take `CC(C)c1cc(C(=O)O)n[nH]1`: the cell number change is -48.8%. Further, the AC50 under setting [1] was 1.03 µM [falling, partial curve, poor fit]. Also, under setting [2], the AC50 was 6.51 µM [falling, single point].
For the molecule `CN(C)c1ccc(C=Nc2ccccc2C(N)=O)cc1`, the cell number change was -27.2%. For the same molecule, the AC50 under setting [2] was 18.4 µM [falling, partial curve].
As to `CC(C)(C)NC(=O)c1sccc1C(=O)O`, the cell number change is -12.1%.
On the same count and under the same terms, the result for `O=C(Nc1ccccc1Cl)c1ccc2c(=O)n3c(nc2c1)CCC3` reads 16.6%.
For `COc1cc(C(=O)NCCCN2CCCC2=O)cc(Br)c1OCc1ccccc1`, the cell number change was -8.43%. The AC50 under setting [2] is 32.6 µM [rising, single point].
`COC(=O)C1=C(C(=O)c2ccc(C)cc2)C(c2ccc(O)c(OC)c2)n2nnnc2N1` (configuration not stated): the cell number change came to 11.5%.
With `CCC(C)c1ccc(NC(=S)Nc2ccc(OC)cc2C)cc1` (configuration not stated), the cell number change is -19.9%. Also, the AC50 under setting [2] is 7.31 µM [falling, partial curve].
On to `CCOC(=O)C[n+]1c(C)sc2ccc(OC)cc21`, for which the cell number change was -9.62%. The concentration at half-maximal activity (AC50) under setting [1] was 0.13 µM [rising, partial curve, poor fit]. Also, the AC50 under setting [2] was 0.13 µM [rising, full curve, poor fit].
`O=C(/C=C/c1ccc2c(c1)OCCCO2)c1ccccc1O`: the cell number change is -44.3%. The AC50 under setting [1] is 0.164 µM [falling, full curve, poor fit]. Also, the AC50 under setting [2] was 29.1 µM [falling, single point].
